Some of the results follow. The main result of the screen is listed elsewhere. These columns were measured beside it and carry no call. Most of these compounds were active or inconclusive in the main read-out, so they are no random draw. Words in brackets tell the shape of the fitted curve; partial curves, single points and poor fits give uncertain potencies.
Assay: qHTS Assay for Lipid Storage Modulators in Drosophila S3 Cells;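 as to cell number change: cells counted by Cell Tracker Red CMTPX staining in the red channel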
Details: BODIPY lipid droplet fluorescence, 18-24 h; for cell number change: measured here: cell count max response, cells fed with added oleic acid
How it was run: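 Drosophila S3 cells loaded with oleic acid (400 uM, as added) and compounds at several concentrations; lipid droplets imaged by 488-nm laser-scanning cytometry, 500–530 nm intensity and object ratio to cell channel. Percent activity normalized to 20 uM Triacsin C.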

[1] = measured here: cell number channel AC50, cells fed with added oleic acid
[2] = measured here: lipid fluorescence (Fed channel) AC50, cells fed with added oleic acid

SMILES	cell number change	AC50 [1]	AC50 [2]
Cc1ccc2nc(-c3ccc(SCC(=O)Nc4ccc5c(c4)OCCO5)nc3)[nH]c2c1	-51.2%	32.6 µM [falling, single point]	2.91 µM [falling, partial curve]
CCOCCCN1C(=O)CN(C2CCC(C)CC2)C(=O)C1c1ccc(C)cc1 (configuration not stated)	–	–	5.17 µM [falling, partial curve]
Cc1cc(C(=O)Nc2cccc(-c3ccc(N4CCOCC4)nn3)c2)ccc1[N+](=O)[O-]	32.6%	9.2 µM [rising, single point]	–
COc1ccc(N2CC(C(=O)Nc3cccc(S(=O)(=O)N4CCCC4)c3)CC2=O)c(OC)c1 (configuration not stated)	54.1%	–	6.51 µM [falling, single point]
Cc1cnc(=O)[nH]c1SCc1ccc([N+](=O)[O-])cc1	-12.8%	–	–
O=C(/C=C/c1ccc(Br)o1)Nc1nnc(C2CC2)s1	32.4%	32.6 µM [rising, partial curve, poor fit]	–
Cc1ccc(C)c(N(C(=O)c2csnn2)C(C(=O)NC2CCCC2)c2ccncc2)c1 (configuration not stated)	-1.9%	–	–
Brc1cccc(-c2nnc(SCc3ccon3)n2-c2ccccc2)c1	2.86%	0.00461 µM [falling, full curve, poor fit]	4.11 µM [rising, single point]
COc1ccc(C(=O)N2CCN(c3ccc([N+](=O)[O-])c(NCCc4ccc(OC)c(OC)c4)c3)CC2)cc1	-49.1%	13 µM [falling, partial curve]	8.2 µM [falling, partial curve, poor fit]
CCN1C(=O)[C@H]2[C@@H](c3ccc(C)cc3)N3C(=O)N(c4ccccc4)C(=O)[C@@]3(Cc3ccccc3)[C@H]2C1=O	33.7%	1.64 µM [rising, full curve]	–
Cc1cc(O)c(C(=O)/C=C/c2ccccc2)c(=O)o1	18%	–	6.51 µM [falling, single point]
CC(=O)c1ccc(NC(=O)CSc2nnc(-c3ccncc3)o2)cc1	19.2%	–	–
CCOC(=O)c1c(C)[nH]c(C(=O)COC(=O)/C=C/c2ccc(O)c(OC)c2)c1C	-10.5%	–	–
COc1cccc(C(=O)Nc2cc(C(=O)NCc3ccc(C)cc3)ccc2N2CCC3(CC2)CC(c2cccc(Br)c2)=NO3)c1	32.8%	32.6 µM [rising, single point]	29.1 µM [rising, single point]
Cc1nnsc1C(=O)Nc1ccc(S(=O)(=O)N2CCCC(C)C2)cc1 (configuration not stated)	12.2%	–	–
O=C(NCCc1ccc(Cl)cc1)C1(c2ccccc2)CC1	14.1%	–	–
CC[n+]1c(/C=C(\C)OC)sc2ccccc21	7.07%	–	2.31 µM [rising, partial curve, poor fit]
Cn1c(C(=O)O)c(CC(=O)Nc2ccccc2F)c2ccccc21	12.5%	–	1.84 µM [falling, single point]
O=C(/C=C/c1ccccc1Cl)Nc1cccc(O)c1	-15%	–	0.651 µM [falling, single point]
O=C(NN1CC(C(=O)OCc2ccc(Cl)cc2Cl)CC1=O)c1ccccc1 (configuration not stated)	8.09%	–	29.1 µM [rising, single point]

Molecules above containing a nitro group on carbon (3):
SMILES	cell number change	AC50 [1]	AC50 [2]
Cc1cc(C(=O)Nc2cccc(-c3ccc(N4CCOCC4)nn3)c2)ccc1[N+](=O)[O-]	32.6%	9.2 µM [rising, single point]	–
Cc1cnc(=O)[nH]c1SCc1ccc([N+](=O)[O-])cc1	-12.8%	–	–
COc1ccc(C(=O)N2CCN(c3ccc([N+](=O)[O-])c(NCCc4ccc(OC)c(OC)c4)c3)CC2)cc1	-49.1%	13 µM [falling, partial curve]	8.2 µM [falling, partial curve, poor fit]

Following part:

SMILES	cell number change	AC50 [1]	AC50 [2]
Cn1cc(C(c2ccccn2)c2cn(C)c3ccccc23)c2ccccc21	-0.62%	0.13 µM [falling, full curve, poor fit]	6.51 µM [falling, single point]
C/C(N)=C(/C#N)C(=O)CSc1nnnn1-c1ccc(C)cc1C	-23.4%	–	32.6 µM [falling, single point]
COCCN(CCOC)S(=O)(=O)c1ccc(OC)cc1	8.29%	–	–
Nc1nc2nccc(-c3ccc(Cl)cc3)n2n1	59.4%	4.61 µM [rising, partial curve, poor fit]	–
Cc1onc(-c2c(F)cccc2Cl)c1C(=O)NCc1ccccc1	-1.05%	–	29.1 µM [falling, single point]
O=C(CN1C(=O)NC2(CCCCCC2)C1=O)c1ccccc1	36.2%	35.5 µM [rising, single point]	15.8 µM [rising, partial curve]
Cc1c(/C(O)=C2\C(=O)C(=O)N(CCN(C)C)C2c2ccco2)cnn1-c1ccccc1 (configuration not stated)	-55.7%	25.9 µM [falling, single point]	–
CC(=O)CSc1nnc(-c2ccc(S(=O)(=O)N3CCOCC3)cc2)n1C	-11.8%	0.00461 µM [falling, full curve, poor fit]	0.112 µM [rising, full curve, poor fit]
CCOC(=O)Cn1c(S(=O)(=O)Cc2ccc(Cl)cc2)nc(-c2ccccc2)c1-c1ccccc1	2.91%	–	20.6 µM [rising, single point]
CC(=O)NC(=S)Nc1ccc(S(=O)(=O)N2CCOCC2)cc1	32.8%	–	–
c1ccc(C2Nc3ccccc3-c3nc4ccccc4n32)cc1 (configuration not stated)	-10.8%	–	0.411 µM [rising, partial curve, poor fit]
CCCC(=O)Nc1ccc(Cl)c(NC(=O)c2ccc(Br)o2)c1	4.18%	0.461 µM [rising, full curve, poor fit]	0.517 µM [rising, full curve]
COc1cc(CO)ccc1OCC(=O)N1CCc2ccccc21	-31.4%	11.2 µM [falling, single point]	10 µM [falling, partial curve, poor fit]
Cc1cccc(C)c1NC(=O)COC(=O)CCC(=O)c1cccs1	-32.8%	25.9 µM [falling, single point]	1.46 µM [falling, full curve]
CCOc1ccc(-n2c(Cc3cc(=O)[nH]c(=O)[nH]3)nnc2SC(C)C(=O)OC)cc1 (configuration not stated)	30.1%	6.51 µM [rising, single point]	–
CN(C)C1(CNCC(O)c2ccccc2)CCCCC1 (configuration not stated)	8.45%	–	29.1 µM [rising, single point]
Cc1nnc(SCC(=O)Nc2cc(S(=O)(=O)N3CCOCC3)ccc2C)s1	–	3.66 µM [rising, partial curve]	–
COc1cc(NC(=O)c2cccs2)ccc1NC(=O)c1cc2ccccc2o1	-19.1%	–	0.164 µM [rising, single point]
COc1ccc2ccccc2c1/C=N/O	-36.8%	13 µM [falling, partial curve, poor fit]	32.6 µM [falling, single point]
CC(=O)c1cccc(-n2nnnc2SCC(=O)N2CCCC2)c1	19.8%	0.231 µM [falling, full curve, poor fit]	1.84 µM [falling, partial curve]

SMILES	cell number change	AC50 [1]	AC50 [2]
CCOc1ccc(OCC)c(NC(=O)CN(C)S(=O)(=O)c2cccc3nsnc23)c1	-5.08%	–	1.46 µM [rising, partial curve, poor fit]
NC(=O)c1c(NC(=O)C2CCCO2)sc2c1CCCCC2 (configuration not stated)	8.48%	–	9.2 µM [rising, partial curve, poor fit]
CCOC(=O)c1c(C)oc2ccc(OCC(N)=O)cc12	115%	20.6 µM [rising, single point]	29.1 µM [rising, single point]
CC1(C)N(O)CC(c2cccs2)=[N+]1[O-]	-12.8%	–	0.411 µM [falling, full curve, poor fit]
COc1ccc2cc[nH]c2c1	17%	–	0.651 µM [falling, full curve, poor fit]
COc1cc(C(=O)OCC(=O)Nc2c(F)c(F)c(F)c(F)c2F)cc(OC)c1OC	-8.96%	–	–
COc1ccc(OC)c(NC(=O)CN(c2ccc(C)cc2)S(=O)(=O)c2c(C)n[nH]c2C)c1	16.1%	–	6.51 µM [falling, single point]
CCOc1ccc(NC(=O)CSc2nnc(C(C)C)n2CC)cc1	2.67%	–	0.092 µM [falling, full curve, poor fit]
Cc1ccc([N+](=O)[O-])cc1NC(=S)NC(=O)c1c(Cl)cnn1C	34.8%	29.1 µM [rising, single point]	29.1 µM [rising, single point]
CC(Oc1ccc(-c2ccccc2)c(F)c1)c1ccn(S(=O)(=O)c2ccc(Cl)cc2)n1 (configuration not stated)	18%	–	18.4 µM [rising, partial curve]
Cc1ccc(C(=O)CC(=O)c2ccccc2)cc1	7.25%	–	–
Cc1cc(=O)nc2c3ccccc3n(C(C)C(=O)Nc3cc(F)ccc3F)n12 (configuration not stated)	–	–	1.84 µM [rising, partial curve]
C=CCn1c(SCC(=O)Nc2ccc(F)cc2)nc2cc(C(=O)O)ccc2c1=O	-3.7%	–	–
O=C(Nc1ccccc1C(=O)NCC1CCCO1)c1ccc(Cl)cc1 (configuration not stated)	20.1%	–	1.26 µM [rising, full curve]
O=C(C1=C(O)C(=O)N(CC2CCCO2)C1c1ccccc1[N+](=O)[O-])c1ccco1 (configuration not stated)	–	–	3.16 µM [falling, single point]
NCCc1ccn[nH]1	-27.4%	–	20.6 µM [falling, single point]
CCOc1ccc(CN(C)C(=O)c2cccnc2OCC)cc1OC	26.3%	–	14.6 µM [rising, partial curve]
CCN1CCN(CC(=O)Nc2cc(C(F)(F)F)ccc2OCCOC)CC1	-16.1%	–	–
COc1ccc(NC(=O)CN(C)CC(=O)N(C)C2(C#N)CCC(C)CC2)cc1 (configuration not stated)	-8.53%	–	–
COc1ccc(Nc2nc(N)nc(CSc3nccn3C)n2)cc1	4.06%	3.66 µM [rising, partial curve, poor fit]	–
